Values of other authors, collected in patent publication US20130331690A1, “VASCULAR IMAGING AGENTS” (GE HEALTHCARE AS, priority 2010, published 2013).

Settings: healthy subjects; cited from earlier work

## CC1(C)C(/C=C/C=C/C=C/C=C2\N(CCCCS(=O)(=O)O)c3ccc4ccccc4c3C2(C)C)=[N+](CCCCS(=O)(=O)[O-])c2ccc3ccccc3c21 [ICG, indocyanine green]
  Blood clearance half-life in vivo: 3.9 ± 0.9 min
